This is one part of the list. Further columns of the screen follow, without active or inactive calls. The list favours compounds with an active or inconclusive main result. Potencies come from curve fits of mixed quality, noted in brackets.
Experiment: qHTS Assay for Modulators of Lamin A Splicing
Details: HeLa LMNA splicing GFP/RFP minigene ratio, 48 h
In short: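 Read-out is the ratio of GFP to DsRed2 object intensity, acquired by 488 nm laser-scanning cytometry on HeLa lamin A-EGFP minigene reporter cells. Compound incubation 48 hrs at 37 °C in Opti-MEM with 2% FBS; DMSO 0.5% final.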

[1] = measured here: GFP splicing reporter channel
[2] = measured here: RFP viability control channel

With CC(C)Cn1nnc2c(=O)oc3ccccc3c21 the AC50 [1] was 22.4 µM [falling, single point] and the AC50 [2] was 35.5 µM [falling, single point].
In the case of CCCN(CCC)C(=O)C(CCC(=O)O)NC(=O)c1ccccc1 (stereo not given), the AC50 [2] is reported as 0.501 µM [falling, full curve].
In the case of Cc1cc(C)c(S(=O)(=O)Nc2ccc(-c3ccc(N4CCCCC4)nn3)cc2)cc1C, the AC50 [1] is reported as 2 µM [falling, full curve, poor fit].
With O=C(c1ccc2c3c(cccc13)CC2)C1CCCN(C(=O)c2ccc(=O)[nH]c2)C1 (stereo not given) the AC50 [1] was 8.91 µM [falling, partial curve, poor fit] and the AC50 [2] was 2.51 µM [falling, full curve, poor fit].
In the case of O=C(Nc1ccc(N2CCN(C(=O)c3ccco3)CC2)cc1)c1ccccc1F, the AC50 [2] is reported as 35.5 µM [rising, single point].
For COc1ccc(N(C(=O)CNC(=O)c2cccs2)C(C(=O)NCC2CCCO2)c2ccccc2)cc1 (stereo not given), the AC50 [1] was 11.2 µM [falling, partial curve, poor fit] and the AC50 [2] was 11.2 µM [falling, single point].
In the case of CCOC(=O)c1sc(NC(=O)COC(=O)CNC(=O)c2ccco2)c(C(=O)OCC)c1C, the AC50 [2] is reported as 14.1 µM [rising, single point].
With O=C(c1ccc(Cl)c(Cl)c1)N(Cc1ccco1)c1ccc(O)cc1 the AC50 [2] was 22.4 µM [rising, single point].
In the case of Cc1ccc(Cn2c(Cc3ccccc3)nc3ccccc32)cc1, the AC50 [1] is reported as 5.01 µM [rising, partial curve] and the AC50 [2] is reported as 11.2 µM [rising, partial curve].
With CCOC(=O)C1=C(C)NC(C)=C(C(=O)OCC)C1c1ccc(OC)cc1 the AC50 [2] was 11.2 µM [rising, partial curve].
With CC(C)CC(=O)N=C1SC2CS(=O)(=O)CC2N1Cc1ccccc1 (stereo not given) the AC50 [1] was 3.55 µM [rising, partial curve, poor fit].
In the case of O=C(Nc1cccc(-c2nc3ccccc3[nH]2)c1)c1cccc(NC(=O)c2ccco2)c1, the AC50 [1] is reported as 35.5 µM [falling, single point] and the AC50 [2] is reported as 35.5 µM [falling, single point].
In the case of Cc1ccc(N(CC(=O)NCc2ccc(OC(C)C)cc2)S(=O)(=O)N(C)C)cc1, the AC50 [2] is reported as 0.00398 µM [rising, full curve, poor fit].
For CC(=O)Nc1ccc(NC(=O)Nc2ccccc2C)cc1, the AC50 [1] was 0.282 µM [rising, full curve, poor fit].
With COc1cccc(N=Nc2c(N)[nH]n3c(=O)c4c(nc23)CCCC4)c1 the AC50 [1] was 35.5 µM [falling, single point].
With O=C(c1ccco1)N1CCN(C(=S)Nc2cccc([N+](=O)[O-])c2)CC1 the AC50 [1] was 6.31 µM [falling, full curve, poor fit].
For COC(=O)c1ccccc1O, the AC50 [1] was 0.891 µM [falling, single point] and the AC50 [2] was 0.794 µM [falling, single point].
In the case of Cc1ccc(NC(=O)CSC(N)=O)cc1Cl, the AC50 [1] is reported as 35.5 µM [rising, single point].
With O=C(NCCc1ccc(Cl)cc1)c1ccc2c(c1)N(Cc1ccccc1)C(=O)CS2 the AC50 [1] was 0.0447 µM [falling, full curve, poor fit] and the AC50 [2] was 0.02 µM [falling, full curve, poor fit].
For O=C(ONC1=NCCCCC1)c1c(F)cccc1F, the AC50 [2] was 10 µM [rising, single point].
With O=c1ccc(C(F)(F)F)cn1Cc1cc(=O)n2ccsc2n1 the AC50 [1] was 7.94 µM [rising, partial curve] and the AC50 [2] was 2.82 µM [rising, full curve].
In the case of CC1(c2cc([N+](=O)[O-])cc([N+](=O)[O-])c2)CC(C)(C)N(C(=O)c2ccccc2)c2ccccc21 (stereo not given), the AC50 [1] is reported as 11.2 µM [rising, partial curve] and the AC50 [2] is reported as 8.91 µM [rising, partial curve].
For CN(CCOc1ccccc1)S(=O)(=O)c1ccc2oc3ccccc3c2c1, the AC50 [2] was 11.2 µM [rising, single point].
With CC1=CC(C)(C)N2C(=O)C3(SCC(=O)N3c3ccc(F)cc3)c3cc(C)cc1c32 (stereo not given) the AC50 [1] was 31.6 µM [rising, single point] and the AC50 [2] was 35.5 µM [rising, single point].
In the case of CN1CCN(C(=S)Nc2ccc(Cl)cc2Cl)CC1, the AC50 [1] is reported as 35.5 µM [rising, single point] and the AC50 [2] is reported as 31.6 µM [rising, single point].
With Cc1nc2cc(Cl)ccc2n1-c1ccccc1 the AC50 [1] was 15.8 µM [rising, partial curve].
With CC(=O)c1cccc(NC(=O)c2ccc(N(Cc3ccccc3C)S(C)(=O)=O)cc2)c1 the AC50 [2] was 15.8 µM [rising, single point].
For Cc1ccc2oc(=O)n(CCCOc3ccccc3C)c2c1, the AC50 [2] was 0.631 µM [falling, partial curve, poor fit].
In the case of COc1ccc(N(CC(=O)Nc2ccc(OC)c(Cl)c2)S(=O)(=O)c2c(C)noc2C)cc1, the AC50 [1] is reported as 3.16 µM [rising, full curve] and the AC50 [2] is reported as 3.98 µM [rising, full curve, poor fit].
In the case of Cc1sc2ncnc(N3CCC(C)CC3)c2c1C, the AC50 [2] is reported as 17.8 µM [rising, single point].
For COc1ccccc1/C=C/C=N/n1c(C2CCCCC2)n[nH]c1=S, the AC50 [2] was 14.1 µM [rising, single point].
In the case of COc1ccc(CC2(CO)CCN(Cc3ccc(OC(F)(F)F)cc3)CC2)cc1, the AC50 [1] is reported as 1.78 µM [falling, full curve] and the AC50 [2] is reported as 3.98 µM [falling, full curve, poor fit].
For Oc1c(C(Nc2ccccn2)c2ccccn2)ccc2cccnc12 (stereo not given), the AC50 [1] was 12.6 µM [rising, single point] and the AC50 [2] was 11.2 µM [rising, partial curve].
For C/C(=C1/C(=O)N(c2ccc([N+](=O)[O-])cc2)N=C1c1ccccc1)N(C)C, the AC50 [1] was 5.01 µM [rising, partial curve] and the AC50 [2] was 7.94 µM [rising, partial curve].
With COC(=O)c1ccc(C(=O)OC)c(NC(=S)N2CCC(C)CC2)c1 the AC50 [2] was 0.794 µM [falling, single point].
